These results are taken from the supplement of paper PMC7024190.

The other results are listed elsewhere or left out. Repeats in this data set agree poorly, so a single value says little.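 Human embryonic kidney cells were transiently transfected with a plasmid bearing a Renilla luciferase gene under the HSV-TK promoter. This first-round screen tests roughly ten thousand compounds for ones that increase reporter output.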

The experiment has as its system HEK 293FT. Kind of experiment: log relative Renilla luciferase luminescence (reporter expression vs reference, reference not stated) (log (base not stated)); higher = higher recombinant reporter expression. The note with it: 10 µM; time after transfection 48 h. As for the experimental part: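 HEK 293FT cells transiently transfected with pRL-TK (Renilla luciferase) were treated with compounds at 10 uM and luminescence was read about 42 h later. Values are log relative Renilla luminescence (log base and reference not stated). Single-pass screen; 2080 natural products library.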
`C=C[C@@]12CN(C)[C@H]3C[C@]14C(=Nc1ccccc14)[C@@H]1C[C@@H]2[C@@H]3CO1` [Koumine]: the log was -0.108.

For `COC(=O)C1=CO[C@@H](C)[C@@H]2CN3CC[C@@]4(C(=O)Nc5cc(OC)ccc54)[C@@H]3C[C@H]12` [Caboxine A], the log is -0.195.

For `COc1ccc2c(c1)[nH]c1c(C)nccc12` [Harmine], the log was -0.293.

As to `O=C1CCC[C@@H]2[C@H]3CCCN4CCC[C@H](CN12)[C@@H]34` [Sophoridine], the log was -0.108.

Regarding `O=C1C=CC[C@@H]2[C@H]3CCC[N@+]4([O-])CCC[C@@H](CN12)[C@@H]34` [Sophocarpidine], the log is -0.125.

For `C=C(C)[C@@H]1[C@H]2OC(=O)[C@@H]1[C@]1(O)[C@H]3O[C@H]3[C@]3(O)CO[C@H]2[C@]13C` [Corianin], the log was -0.795.

As to `O=C1CCC[C@@H]2[C@H]3C[C@@H](CN12)[C@@H]1CCCCN1C3` [Lupanine], the log was -0.158.

Consider `O=c1cccc2n1CC1CCCN3CCCC2C13` (stereo not given) [Neosophoramine], for which the log is -0.0508.

For the compound `C=C[C@@H](O)C#CC#C[C@@H](O)/C=C\CCCCCCCCOC(C)=O`, the log came out at 0.181.

With `COC(=O)C1=COC(C)C2CN3CCC4(C(=O)Nc5cc(OC)c(OC)cc54)C3CC12` (stereo not given) [Isocarapanaubine], the log came out at 0.0924.

For the compound `C/C(=C\C=C\[C@@]1(C)OC(=O)[C@]23CC=C(C(=O)O)CC[C@]2(O)[C@H]1CC3)C(=O)O` [Demethoxydeacetoxypseudolaric acid B], the log was determined as 0.142.

As for `C/C=C1/CN2[C@@H]3C[C@@]45c6ccccc6N(COC)[C@]4(O3)[C@@H]2CC1C5C(=O)OC` (stereo not given in full) [N1-methoxymethyl picrinine], the log is -0.227.

On to `C=CC(C)(C)c1[nH]c2c(CC=C(C)C)cc(CC=C(C)C)cc2c1C[C@@H]1NC(=O)[C@H](C)NC1=O` [Echinulin], for which the log is 0.0732.

On to `C=C[C@@H](O)C#CC#C[C@@H](O)/C=C\CCCCCCC` [Falcarindiol], for which the log was -0.0445.

For the compound `COc1ccc2c(c1OC)CC1c3c(cc4c(c3-2)OCO4)CCN1C` (stereo not given) [Crebanine], the log was -0.0581.

Turning to `CC(C)(O)C1C2OC(=O)C1C1(O)C3OC3C3(CO3)C1(C)C2O` (stereo not given) [Isohyenanchin], the log was determined as 0.148.

Regarding `COc1cc(O)cc(/C=C/c2ccc(O)cc2)c1` [Pinostilbene], the log is -0.267.

Take `CC1(C)O[C@@H]1COc1c2occc2cc2ccc(=O)oc12` [Heraclenin]: the log was -0.0633.

On to `CC(C)(O)[C@@H]1[C@@H]2C[C@]3(C)[C@@](O)([C@H]4O[C@H]4[C@]34CO4)[C@H]1C(=O)O2` [Coriatin], for which the log was determined as 0.176.

For the compound `Oc1cc(O)cc(/C=C/c2ccc(O)cc2O)c1` [Oxyresveratrol], the log was 0.0292.

As to `CC=C1CN2C3CC1C(CO)(C(=O)OC)C2Cc1c3[nH]c2ccccc12` (stereo not given) [(Z)-Akuammidine], the log is -0.0767.

With `COC(=O)N1c2ccccc2[C@]23CC(=O)C[C@@]4(CCCN(C=O)[C@@H]42)CC[C@]13C(=O)OC` [11,12-De(methylenedioxy)danuphylline], the log is 0.0634.

With `CC(C)[C@]12C=C3CC[C@H]4[C@](C)(C(=O)O)CCC[C@]4(C)[C@@]3(CC1)OO2` [9,13-Epidioxy-8(14)-abieten-18-oic acid], the log was -0.251.

`CC(=O)O[C@H]1C(=O)[C@@]2(C)[C@H]([C@H](OC(=O)c3ccccc3)[C@]3(O)C[C@H](O)C(C)=C1C3(C)C)[C@]1(OC(C)=O)CO[C@@H]1C[C@@H]2O` [Baccatin III]: the log is -0.505.

In the case of `C=C(C)C1C2OC(=O)C1C1(O)C3OC3C3(CO3)C1(C)C2OC(C)=O` (stereo not given) [2-O-Acetyltutin], the log is 0.209.

As for `C=C[C@]12CN(C)[C@@H]3[C@H]4CO[C@H](C[C@H]41)[C@]1(C(=O)N(OC)c4ccccc41)[C@@H]32` [Gelsevirine], the log is 0.0156.

Regarding `Cc1cc2c(O)c3c(c(O)c2o1)[C@@]1(C)CCC(=O)C(C)(C)C1=C(O)C3=O` [Teuvincenone H], the log turned out to be 0.0294.

For the compound `C/C=C1/CN2[C@@H]3C[C@@]45c6ccccc6N[C@]4(O3)[C@@H]2C[C@@H]1[C@@]5(C=O)C(=O)OC` [Picralinal], the log is -0.152.

On to `CCC1CN2CCc3c([nH]c4ccccc34)C2CC1C(CO)C(=O)OC` [(16R)-Dihydrositsirikine], for which the log was -0.00908.

Consider `CC(C)=CCOc1c2occc2cc2ccc(=O)oc12` [Imperatorin], for which the log was -0.0495.

With `COc1cccc2c1C[C@@H]1c3c(cc4c(c3-2)OCO4)CCN1C` [Stephanine], the log was -0.0264.

`CC(C)[C@@H](C)/C=C/[C@@H](C)[C@H]1CC[C@@H]2[C@]1(C)CC[C@H]1[C@]23C=C[C@]2(C[C@@H](O)CC[C@]12C)OO3` [Ergosterol peroxide]: the log is -0.0411.

Turning to `CC(=O)O[C@@H]1[C@H]2[C@H]3C[C@H]4C5=Nc6ccccc6[C@]51C[C@@H]2N4[C@H](C)C3C=O` (stereo not given in full) [Perakine], the log was determined as 0.0378.

Consider `CC1(C)CCC[C@@]2(C)C1=C(O)C(=O)c1c(O)c3c(c(O)c12)O[C@@H](CO)C3` [Villosin C], for which the log is -0.0428.

Take `CCC12C=CCN3CC[C@@]4(c5ccc(OC)cc5N(C)[C@H]4[C@@](O)(C(=O)OC)[C@@H]1OC(C)=O)[C@@H]32` (stereo not given in full) [Vindoline]: the log was determined as 0.0852.

With `COC(=O)C1=CO[C@@H](C)[C@@H]2CN3CC[C@@]4(C(=O)Nc5cc(OC)ccc54)[C@H]3C[C@H]12` [Vineridine], the log is 0.0164.

Take `CC(C)C1CCC2(C)C3CC(O)C45CCCC4C2(CCC(=O)C2(C)COC4(C)CCC2O4)C1N5C3` (stereo not given) [11-Hydroxycodaphniphylline]: the log is -0.401.

Consider `O=c1ccc2cc3ccoc3c(O)c2o1` [Xanthotoxol], for which the log is -0.0512.

For the compound `O=C1C=CC[C@@H]2[C@H]3CCCN4CCC[C@@H](CN12)[C@@H]34` [Sophocarpine], the log is -0.0633.

Regarding `COC1=CC23CCN(C)C(Cc4ccc(OC)c(O)c42)C3=CC1=O` (stereo not given) [Sinoacutine], the log was -0.0636.
